# Screening data, single-dose tests

Amino acid sequences for entries named in this document (tags omitted). Residues count along the entry.
UniProt P9WNZ1, whole entry: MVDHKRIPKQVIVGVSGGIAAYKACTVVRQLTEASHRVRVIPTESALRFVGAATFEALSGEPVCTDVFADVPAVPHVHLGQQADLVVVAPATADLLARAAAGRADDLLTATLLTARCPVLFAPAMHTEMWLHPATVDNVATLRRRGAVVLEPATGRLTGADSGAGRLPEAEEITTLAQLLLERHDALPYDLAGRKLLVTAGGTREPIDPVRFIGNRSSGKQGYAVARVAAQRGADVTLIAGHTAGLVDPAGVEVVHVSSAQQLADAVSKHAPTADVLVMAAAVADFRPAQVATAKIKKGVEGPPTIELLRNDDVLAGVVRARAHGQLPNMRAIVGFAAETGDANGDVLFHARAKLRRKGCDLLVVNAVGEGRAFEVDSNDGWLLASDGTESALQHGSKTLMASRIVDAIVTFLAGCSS
UniProt Q4DA54, 1-478: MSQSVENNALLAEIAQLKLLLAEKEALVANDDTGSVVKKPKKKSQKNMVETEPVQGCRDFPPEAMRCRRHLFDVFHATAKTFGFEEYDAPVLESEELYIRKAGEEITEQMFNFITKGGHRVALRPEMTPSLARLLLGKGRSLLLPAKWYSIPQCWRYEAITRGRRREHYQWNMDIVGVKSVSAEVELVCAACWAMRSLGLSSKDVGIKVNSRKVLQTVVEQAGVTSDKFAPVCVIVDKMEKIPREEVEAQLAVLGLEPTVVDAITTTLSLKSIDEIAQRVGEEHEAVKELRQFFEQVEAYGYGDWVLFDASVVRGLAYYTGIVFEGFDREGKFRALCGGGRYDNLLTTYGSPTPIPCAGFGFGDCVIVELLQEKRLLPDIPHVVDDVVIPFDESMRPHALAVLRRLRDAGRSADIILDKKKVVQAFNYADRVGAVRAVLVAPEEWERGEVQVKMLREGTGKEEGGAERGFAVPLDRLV

Measurements from “University of Dundee, Small-Polar-MMV Screening Library” (2021), ChEMBL document CHEMBL3988442.

CoaBC: 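Coenzyme A biosynthesis protein CoaBC, Mycobacterium tuberculosis (UniProt P9WNZ1). Enzyme assay of CoaBC with a phosphate dye (Biomol Green) read at 650 nm. Concentration: 30 µM. Direction is inferred from only a few compounds that gave an IC50; most scored high, so higher reads as stronger inhibition. Most strong results did not repeat in a second test. About 67,000 compounds were tested under these conditions; 0.06% (about 40) showed 50% or more at least once.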
TcHisRS: 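Enzyme assay of histidyl-tRNA synthetase; the read-out is not stated. Target: Histidine-tRNA ligase, Trypanosoma cruzi CL Brener (UniProt Q4DA54). Tested at 30 µM. Higher reads as stronger inhibition (inferred: compounds with an IC50 in retests scored well above the rest). About 69,000 compounds were tested under these conditions; 0.045% (about 31) showed 50% or more at least once.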

Values are the deposited “Percent Effect”, in %. The record does not define 0% and 100%; most values in the screen are far below 50% and negative numbers occur (in some assays of this library far below -100). The compounds are a random part of those screened. A dash means the value is not listed here; it may have been measured.

compound | CoaBC | TcHisRS
CCn1cc(S(=O)(=O)N(CCc2ccccc2)Cc2ccn(C)n2)cn1 | -6.467% | -0.8696%
Cc1ncoc1C(=O)N1CCOC(CC2CCCCC2)C1 (centres undefined) | 6.846% | 0.5181%
Cc1cccc(CNC2CCCc3c2cnn3C)c1 (centres undefined) | 3.915% | 0%
CCC(NC(=O)c1ccc2[nH]ccc2c1)C(=O)N1CCOCC1 (centres undefined) | -1.914% | 0.9804%
Cc1cc(CN2CCC(CNS(=O)(=O)c3ccccc3Cl)CC2)c(C)o1 | 5.275% | 9.845%
COc1cc2c(cc1CNC(=O)Cc1ccc(C)nc1)OC(C)C2 (centres undefined) | 3.113% | 1.667%
CN1C(=N)NC(=O)/C1=C/c1ccc(-c2ccc(Br)cc2)o1 | -1.266% | 4.878%
O=C(CCC1CCN(C(=O)c2csnn2)CC1)NCc1cccc(Cl)c1 | 10.91% | 2.703%
CC[C@H](C)[C@@H](CO)NC(C)Cc1ccccc1F (some centres undefined) | 7.107% | 4%
Cc1cc(C(=O)N2CC[C@H]3[C@H](C[C@@H](CN4CCCC4)N3C)C2)c(C)o1 | 4.97% | 6.145%
O=C(c1noc2c1CCCC2)N1CCCC(c2nccs2)C1 (centres undefined) | 2.184% | 2.682%
Cc1ccc(C(=O)NS(C)(=O)=O)cc1-n1cccc1 | -0.9223% | 9%
CC(C)N(C)Cc1nnc2n1CCN(CC1CC1)CC2 | 0.6342% | 6.452%
CN(C)C(=O)N1CCCC(C(=O)N(C)Cc2cnc(N)nc2)C1 (centres undefined) | 3.071% | 13.1%
Cc1nc(C2CCN(C(=O)c3cscn3)CC2)c2sccn12 | 4.116% | 14.44%
Cc1noc(C(C)C)c1C(=O)NCCN1CCCCCC1=O | 1.581% | 1.141%
Cc1ccc2c(CC(=O)N(C)CCN(C)C)c(C)[nH]c2c1C | -8.959% | 6.215%
Cc1ccccc1CC(C)NC(=O)Nc1cnn(CC(N)=O)c1 (centres undefined) | -0.3817% | 3.944%
O=C(CCc1cccc(Cl)c1Cl)N1CCOCC1c1ncon1 (centres undefined) | -1.786% | 1.754%
CC(C)(C)c1cc(=O)[nH]c(C2(N)CCCCC2)n1 | 0.1227% | 2.469%
Cc1nc(CN2CCCC(c3cc(C(F)(F)F)[nH]n3)C2)cs1 (centres undefined) | 1.567% | 4.52%
COc1cc(C(C)=O)ccc1OC12CCCN(CC1)C2 (centres undefined) | -1.446% | 7.921%
O=S(=O)(Nc1ccc(N2CCOCC2)cn1)c1ccc(F)cc1 | -2.903% | 5.419%
Cc1cnn(C2CCCN(C(=O)c3ccc(-n4ccnc4)cc3)C2)c1 (centres undefined) | -1.863% | 3.152%
Cc1nn(C)c(C)c1CC(=O)NCc1ccnc(N2CCOCC2)c1 | -1.145% | 5.07%
CCc1nnc2n1CC(CNCc1nc(C)c(C)o1)CC2 (centres undefined) | 3.113% | 8.333%
Cc1ccc(CN2CCn3c(C(=O)N(C)C)cnc3C2)s1 | 3.368% | 6.011%
Cc1nc2ncnn2c2ccn(-c3cccnc3O)c(=O)c12 | -1.208% | 7.097%
O=C(CC1CN(Cc2ccccc2)CCO1)Nc1ccccc1F (centres undefined) | 3.52% | 0.5348%
CC(C)c1noc(CN(C)C(=O)c2ncn[nH]2)n1 | 5.832% | 0%
Cn1cc(CNC2CC3(CCN(CC4CC4)CC3)c3ccccc32)cn1 (centres undefined) | - | 6.329%
c1cncc(-c2nc3c(c(NCC4(c5ccncc5)CC4)n2)CCC3)c1 | 9.719% | 4.082%
CC(=O)N1CCN(Cc2ccc(C(F)(F)F)c(F)c2)CC(O)C1 (centres undefined) | 0.1242% | -3.865%
Cn1cc(N2CCC3(CCCN(Cc4ccc(F)cc4)C3)C2=O)cn1 (centres undefined) | 3.448% | 10.92%
COc1ccncc1NC(=O)C1(c2ccccc2)CC1 | -3.606% | 7.595%
CC(NC(=O)NCCCn1cccn1)c1ccncc1 (centres undefined) | 3.719% | -26.67%
Cc1cc(C(=O)NCc2ccc(F)cc2)c2c(C3CCNC3)noc2n1 (centres undefined) | 0% | 6.509%
Cc1ccc(OC2CCN(C(=O)Cc3c(C)[nH]c(=O)[nH]c3=O)CC2)cc1 | 1.229% | 3.529%
COC[C@@]12CCC[C@@H]1CN(C(=O)Cc1ccccn1)C2 | 0.1238% | 3.518%
COc1ccc(COCC(O)CNC(=O)c2cccnc2)cc1 (centres undefined) | 2.611% | 1.128%
Cn1cc(CNC(=O)c2cc3c(s2)CCCCC3)cn1 | -11.49% | 5.435%
Cc1cccnc1CN(C)C(C(=O)O)c1ccc(-n2cccn2)cc1 (centres undefined) | 0.9938% | 0.5128%
O=C(NCCn1ccnc1)N1CCCC1c1ccc2c(c1)OCCO2 (centres undefined) | 3.158% | 6.158%

Some entries from above, unchanged:

With COC[C@@]12CCC[C@@H]1CN(C(=O)Cc1ccccn1)C2 the screen gave CoaBC: 0.1238%; TcHisRS: 3.518%.
With CN1C(=N)NC(=O)/C1=C/c1ccc(-c2ccc(Br)cc2)o1 the screen gave CoaBC: -1.266%; TcHisRS: 4.878%.
With CCC(NC(=O)c1ccc2[nH]ccc2c1)C(=O)N1CCOCC1 (centres undefined) the screen gave CoaBC: -1.914%; TcHisRS: 0.9804%.
With CCn1cc(S(=O)(=O)N(CCc2ccccc2)Cc2ccn(C)n2)cn1 the screen gave CoaBC: -6.467%; TcHisRS: -0.8696%.
With Cc1nn(C)c(C)c1CC(=O)NCc1ccnc(N2CCOCC2)c1 the screen gave CoaBC: -1.145%; TcHisRS: 5.07%.